PubChem BioAssay AID686937 – Drosophila RNAi Screening Center, 2013
The deposit covers about 23,000 reagents; below is an unselected part of those that have a named target and a result. 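Reduced-secretion tags in replicate 1 do not always agree with the z-scores; no criterion for assigning the tags was given.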 A plus sign joins genes that one reagent is predicted to hit. Further read-outs or replicates are left out here. The record does not give: the amount of reagent.

Assay: 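Genes in the fly needed for secretion of protein constitutively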 (primary screen)
Cells: Drosophila S2 cells expressing secreted horseradish peroxidase
Reagents: long dsRNA against Drosophila genes
Timing: about 5.5 days (5 days dsRNA, then 12 h reporter induction)
Conditions: reporter expression induced after 5 days of dsRNA, read 12 h later; inducer not stated
Read-out: 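Chemiluminescent measurement of peroxidase in the medium 12 h after reporter induction, following 5 days of dsRNA, given as a z-score per plate; higher means more secretion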
Direction: z-score: higher = more reporter secreted into medium

Knock-down of CG2063 (GeneID 35952) [DRSC06811] came out at: z-score, replicate 1 = -3.1.
Depletion of RpL27A (GeneID 33654) [DRSC00781] resulted in: z-score, replicate 1 = -5.52.
For CG12912 (GeneID 36075) [DRSC06227] the deposit lists z-score, replicate 1 = -3.04.
After knock-down of Gdi (GeneID 34264) [DRSC03330], the screen gave z-score, replicate 1 = 0.22.
CG42362 + CG42363 [DRSC04265] showed z-score, replicate 1 = 0.3.
For CG8170 (GeneID 35908) [DRSC07087] the deposit lists z-score, replicate 1 = 0.2.
tctn + B9d2 [DRSC03160] showed z-score, replicate 1 = 0.45.
For l(3)neo43 (GeneID 41851) [DRSC14988], the values are z-score, replicate 1 = 0.04.
Against Cpr11A (GeneID 32198) [DRSC19861], the values are z-score, replicate 1 = -0.02.
Against Lsp1alpha (GeneID 32199) [DRSC20258], the values are z-score, replicate 1 = 0.07.
CG9737 (GeneID 43600) [DRSC16550] scored z-score, replicate 1 = 0.27.
Against PIG-T (GeneID 31772) [DRSC17774], the values are z-score, replicate 1 = 0.18.
rdgBbeta (GeneID 37011) [DRSC07672] scored z-score, replicate 1 = 0.43.
With knock-down of CG7798 (GeneID 36798) [DRSC07047] the results were z-score, replicate 1 = 0.29.
With knock-down of CG15432 (GeneID 33647) [DRSC00447] the results were z-score, replicate 1 = 0.03.
Or85d (GeneID 41011) [DRSC16767] gave z-score, replicate 1 = 0.13.
Silencing of tmod (GeneID 43633) [DRSC13993] came out at: z-score, replicate 1 = 0.32.
After knock-down of tmod (GeneID 43633) [DRSC14314] the results were z-score, replicate 1 = -0.43.
With knock-down of tmod (GeneID 43633) [DRSC15076], the record shows z-score, replicate 1 = 0.28.
After knock-down of tmod (GeneID 43633) [DRSC17062], the record shows z-score, replicate 1 = 0.43.
Silencing of CG34056 (GeneID 38106) [DRSC08374] came out at: z-score, replicate 1 = 0.47.
With knock-down of Rpn3 (GeneID 35176) [DRSC03318] the results were z-score, replicate 1 = -6.72.
CG15198 (GeneID 32065) [DRSC19645] scored z-score, replicate 1 = 0.32.
For CG5107 (GeneID 43084) [DRSC15716] the deposit lists z-score, replicate 1 = 0.53.
CG32982 (GeneID 34237) [DRSC01059] scored z-score, replicate 1 = -4.23.
CG32982 (GeneID 34237) [DRSC02677] scored z-score, replicate 1 = 0.58.
With knock-down of CG32982 (GeneID 34237) [DRSC03268] the results were z-score, replicate 1 = 0.29.
With knock-down of CG32982 (GeneID 34237) [DRSC03269], the screen gave z-score, replicate 1 = 0.54.
CG32982 (GeneID 34237) [DRSC21912] scored z-score, replicate 1 = 0.25.
